Values of other authors as cited in patent publication US20060127505A1, “Anti-inflammatory formulations” (priority 2002, published 2006).
Some of these results come from one statement about several compounds together. At least one structure is not confirmed: it was looked up by name or label, or the drawing left a doubt.

System: A42 peptide
Details: variety of cultured cells; independently of COX activity; cited from earlier work

In the case of `CSc1ccc(/C=C2/C(C)=C(CC(=O)O)c3cc(F)ccc32)cc1` [sulindac sulphide], the “decrease of A42 peptide produced from cultured cells” value is given as at most 80%.
